In patent publication US7968098B2, “HLA-A24-binding KIF-derived peptide” (Kurume University, priority 2006, dated 2011):
Part of at least one peptide drawing is inferred or uncertain, most often the ends. No end group written: not given here.

Columns and labels:
KNS-81 cells = test: 6-h 51Cr-release cytotoxicity assay of peptide-stimulated PBMCs / CD8+ T cells; format: cell-based, human; details: PBMCs of HLA-A24+ glioma patients, FIG. 2
Protocol: Peptide-stimulated PBMCs were tested for their cytotoxicity against No. 11 (HLA-A24 negative) and KNS-81 (HLA-A24 positive) by a standard 6-h ^51Cr-release assay. Phytohaemagglutinin (PHA)-activated T cells (T cell blast) from HLA-A24 positive healthy donors were used as a negative control. The PBMCs were stimulated with each of the KIF peptides (10 μg/ml) in the presence of IL-2 (100 units/ml) every 3 days for 15 days, followed by incubation with IL-2 alone for an additional 15 days. After CD8^+ T cells were positively isolated using a CD8-positive isolation kit (Dynal, Oslo, Norway), 2,000 ^51Cr-labeled cells per well were cultured with effector cells in 96-round-well plates. The specific ^51Cr-release was calculated according to the following formula: % specific lysis=(test sample release−spontaneous release)×100/(maximum release−spontaneous release). Spontaneous release was determined using the supernatant of the sample incubated with no effector cells, and the maximum release was then determined by the supernatant of the sample incubated with 1% Triton X (Wako Pure Chemical Industries, Osaka, Japan). […]

[1] = system: anti-peptide immunoglobulin G (IgG) in plasma; test: Anti-peptide IgG in plasma measured by the Luminex system; format: binding, human; details: for Total (IgG-positive cases/total cases): positive = >1.25 times no peptide control; for Positive cases/total cases, Patients: Table 3, IgGs reactive to peptide in plasma of glioma patients; for Positive cases/total cases, Healthy donors: Table 3, IgGs reactive to peptide in plasma of healthy donors; for Positive cases/total cases, Total: Table 3, patients plus healthy donors; for Recognition by IgGs in the plasma compared with the other peptides: plasma of glioma patients and healthy donors
Protocol: The levels of anti-peptide immunoglobulin G (IgG) were measured by the Luminex™ system as previously reported (Komatsu N et al, Scand J Clin Invest 2004; 64: 1-11). In brief, plasma was incubated with 25 μl of peptide-coupled color-coded beads (Luminex Corp., Austin, Tex., USA) for 2 h at room temperature on a plate shaker. After incubation, the mixture was washed with a vacuum manifold apparatus and incubated with 100 μl of biotinylated goat anti-human IgG (BA-3080, Vector Laboratories, Burlingame, Calif., USA) for 1 h at room temperature. The plate was then washed, and 100 μl of streptavidin-PE (S-866, Molecular Probes, Eugene, Oreg., USA) was added to each well and was incubated for 30 min at room temperature on a plate shaker. The bound beads were washed three times followed by the addition of 100 μl of Tween-PBS to each well. Fifty μl of each sample was then examined using the Luminex™ system.
Next, the abilities of the KIF-derived peptides to be recognized by IgGs of glioma patients were examined, because IgGs reactive to CTL-directed peptides are detectable in the plasma of patients with different types of cancer (Nakatsura T et al, Eur J Immunol 32: 826-836, 2002), along with that levels of IgG well correlated with clinical responses of patients who received peptide vaccination as reported previously (Mine T et al, Clin Cancer Res 10: 929-937, 2004; Yajima N et al, Clin Cancer Res 11: 5900-5911, 2005). IgGs reactive to a corresponding peptide were judged to be significant when the immunofluorescence intensity in 1:100-diluted plasma exceeded 1.25 times that of the control samples with no peptides. […] Based on these findings, these 8 KIF peptides (3 for KIF1C, 3 for KIF3C, and 2 for KIF21B) were the focus of the following experiments.

Sequence | Induction of glioma-reactive CTLs (KNS-81 cells) | Immunofluoresence intensity ([1]; Healthy donor 2, 1:100-diluted plasma) | Immunofluoresence intensity ([1]; Healthy donor 4, 1:100-diluted plasma) | Immunofluoresence intensity ([1]; Healthy donor 7, 1:100-diluted plasma) | Total (IgG-positive cases/total cases) ([1]; Table 2, glioma patients) | Total (IgG-positive cases/total cases) ([1]; Table 2, healthy donors) | Positive cases/total cases, Patients [1] | Positive cases/total cases, Healthy donors [1] | Positive cases/total cases, Total [1] | Immunofluoresence intensity ([1]; glioma Patient 8, 1:100-diluted plasma) | Immunofluoresence intensity ([1]; glioma Patient 9, 1:100-diluted plasma) | Recognition by IgGs in the plasma compared with the other peptides [1]
IYCERVRDLL [KIF1C 149-158] | efficiently induced glioma-reactive CTLs | 41.0 | 55.8 | 442.0 | 8/10 | 7/10 | 8/10 | 7/10 | 15/20 | 16.0 | 19.5 | more frequently
KYKAMESKL [KIF3C 512-520] | efficiently induced glioma-reactive CTLs | – | – | – | – | – | 5/10 | 4/10 | 9/20 | – | – | more frequently
